Assay results taken from PMC6331526.
These are yes or no findings as the source states them, for the method shown. For some assays here: Binding seen in cells or lysates may run through a third protein. Some results given as binding are weak or reduced against the parent protein; the word gives no strength. Where a sequence is shown, tags or fusion partners need not be part of it.

Key:
[1] = target: T1, NTCP, myc-tagged (myc-NTCP) and HA-tagged (HA-NTCP) copies co-expressed in HepG2 cells (human) (UniProt Q14973); experiment: proximity ligation; HepG2 cells overexpressing myc-NTCP and HA-NTCP, with preS1, with an excess amount of NTCP fragment peptide added as decoy; loss of myc-HA PLA signal; only the binder purified
T1 sequence: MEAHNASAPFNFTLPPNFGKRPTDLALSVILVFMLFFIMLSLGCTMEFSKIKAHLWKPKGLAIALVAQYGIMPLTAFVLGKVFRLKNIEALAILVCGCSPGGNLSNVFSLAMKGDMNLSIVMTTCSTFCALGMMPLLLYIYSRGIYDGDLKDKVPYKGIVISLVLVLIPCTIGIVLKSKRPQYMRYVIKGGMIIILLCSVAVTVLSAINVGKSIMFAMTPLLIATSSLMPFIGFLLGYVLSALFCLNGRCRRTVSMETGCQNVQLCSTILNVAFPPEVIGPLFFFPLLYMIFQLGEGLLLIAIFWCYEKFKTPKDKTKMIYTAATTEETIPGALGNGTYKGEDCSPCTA

[2] = target: T2, NTCP(221-240) peptide (human) (UniProt Q14973); experiment: pull-down; biotinylated peptides immobilized on streptavidin-agarose beads, incubated with recombinant His-NTCP at 4°C for 4 h; coprecipitated His-NTCP detected by immunoblot with anti-His antibody; both purified
T2 sequence (peptide, biotin (position not stated)): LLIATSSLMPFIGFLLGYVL

[3] = target: T3, NTCP(271-290) peptide (human) (UniProt Q14973); experiment: as above
T3 sequence (peptide, biotin (position not stated)): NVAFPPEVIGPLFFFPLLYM

[4] = target: T2, NTCP(221-240) peptide (human); experiment: SPR; NTCP peptide-immobilized chip; nominally dose-dependent responses (Figure S4); conditions not shown; both purified
[5] = target: T3, NTCP(271-290) peptide (human); experiment: as above
[6] = target: T1, NTCP, myc-tagged (myc-NTCP) and HA-tagged (HA-NTCP) copies co-expressed in HepG2 cells (human); experiment: proximity ligation; HepG2 cells transiently expressing both myc-NTCP and HA-NTCP, treated with preS1 probe for 30 min at 4°C; anti-myc and anti-HA antibodies, Duolink PLA
[7] = target: T1, NTCP, myc-tagged (myc-NTCP) and HA-tagged (HA-NTCP) copies co-expressed in HepG2 cells (human); experiment: proximity ligation; HepG2 cells transiently expressing both myc-NTCP and HA-NTCP, without preS1 probe; anti-myc and anti-HA antibodies, Duolink PLA

NVAFPPEVIGPLFFFPLLYM (peptide, UniProt Q14973 271-290, biotin (position not given)) [NTCP(271-290) peptide]
binding [1]: binds

B1: Recombinant full-length NTCP protein tagged with His (His-NTCP) (protein, UniProt Q14973 1-349)
chain: T1 sequence
binding [2]: binds | binding [3]: binds | binding [4]: binds | binding [5]: binds

B2: NTCP, myc-tagged (myc-NTCP) and HA-tagged (HA-NTCP) copies co-expressed in HepG2 cells (receptor, UniProt Q14973 1-349)
chain: T1 sequence
binding [6]: binds | binding [7]: binds weakly

LLIATSSLMPFIGFLLGYVL (peptide, UniProt Q14973 221-240, biotin (position not given)) [NTCP(221-240) peptide]
binding [1]: binds
